Test results taken from US7534769B2, “Compositions and methods for enhancing delivery of therapeutic agents to cells” (Canji, Inc., priority 1996, dated 2009).
At least one structure is not confirmed: it was looked up by name or label, or the drawing left a doubt.

Test system: bladder
Assay: Gene transfer activity of water-soluble Syn3 analogs in vivo, whole organ Xgal staining
Design: species or system rat; key to the marks not given beside the values
Description: A concentration of 1 mg/ml was chosen for initial testing of both compounds.
The solution of A-TMA was prepared by dissoluting 10 mg of A-TMA into 10 ml Dulbecco's PBS. Glycerol was added to provide a final concentration of 10 mg/ml. All solutions were sterile filtered prior to use (0.2 μm Acrodisc syring filter). The virus (BGCG 70AAB) was diluted 1:10 into either this A-TMA solution, or into Dulbecco's PBS-glycerol prior to administration.
Ten mg of A-HCl was dissoluted into this buffer and sterile filtered prior to use (0.2 μm Acrodisc suring filter). The virus (BGCG 70AAB) was diluted 1:10 into this solution prior to administration. For comparison, the virus diluted into this buffer without A-HCl was also tested.
Female HSD rats were anesthetized using isofluorane. The rats were transuretherally catheterized into the bladder using PE50 tubing lubricated with K-Y jelly. A tie-off was installed on the external urethra to prevent back leakage. Urine, if any, was removed and the bladder was flushed with 0.5 ml PBS and emptied. rAd was diluted to the desired concentration (1:10) and instilled for 45 minutes. The dosing material was removed, noting the return volume. The bladder was flushed with 0.5 ml PBS and emptied. The tie-off and catheter were removed, and the animals were allowed to recover in cages.
After 48 hours, the animals were sacrificed and their bladders inflation fixed with 0.5 ml fixative for 1 hour. The bladders were then rinsed overnight and whole organ Xgal staining was conducted.

[1] = individual animals, 1 mg/ml in PBS/1% Glycerol (A-TMA) or Buffer D (A-HCl)

| SMILES | Gene Transfer Activity [1] | Gene Transfer Activity (summary, Concentration 1 mg/ml) |
| --- | --- | --- |
| C[C@H](CCC(=O)NCCCN(CCCN)C(=O)CC[C@@H](C)[C@H]1CC[C@H]2[C@@H]3[C@H](O)C[C@@H]4C[C@H](O)CC[C@]4(C)[C@H]3C[C@H](O)[C@]12C)[C@H]1CC[C@H]2[C@@H]3[C@H](O)C[C@@H]4C[C@H](O)CC[C@]4(C)[C@H]3C[C@H](O)[C@]12C.Cl [A-HCl] | ++ | ++ |
| C[C@H](CCC(=O)NCCCN(CCC[N+](C)(C)C)C(=O)CC[C@@H](C)[C@H]1CC[C@H]2[C@@H]3[C@H](O)C[C@@H]4C[C@H](O)CC[C@]4(C)[C@H]3C[C@H](O)[C@]12C)[C@H]1CC[C@H]2[C@@H]3[C@H](O)C[C@@H]4C[C@H](O)CC[C@]4(C)[C@H]3C[C@H](O)[C@]12C.[Cl-] [A-TMA] | ++ | ++ |
